Values from PubChem BioAssay AID504774 (Drosophila RNAi Screening Center, 2011).
The deposit covers about 23,000 reagents; below is a random part of those that have a named target and a result. 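Values are quantile-normalised luminescence on an arbitrary scale; higher means more cells surviving MMS.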 Names joined by + are all predicted targets of the reagent. Not all columns of the deposit are shown. Reagent sequences are not shown.

Purpose: 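Fly genes whose loss alters survival after alkylation damage to DNA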 (primary screen)
Cell system: Drosophila Kc167 cells
Reagent: long dsRNA against Drosophila genes, about 0.25 µg dsRNA per well
Time to read-out: about 6 days: 3 days knock-down, then 3 days with or without MMS
Conditions: methyl methanesulphonate 0.004% (w/v) for 3 days after knock-down
Measured: 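ATP-dependent luminescence as a measure of live cells in MMS-exposed wells, quantile normalised within each plate, with replicate values also given as a mean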
Direction: mean viability with MMS and viability with MMS: higher = more surviving cells after MMS

Cyp4e1 (Cytochrome P450 4e1) [DRSC07370] → mean viability with MMS: 3.53e6; viability with MMS, replicate 1: 3.99e6
TBC1D23 (TBC1 domain family member 23) [DRSC00657] → mean viability with MMS: 3.65e6; viability with MMS, replicate 1: 4.21e6
CG17327 [DRSC15225] → mean viability with MMS: 3.51e6; viability with MMS, replicate 1: 4.01e6
CG16799 [DRSC06626] → mean viability with MMS: 3.63e6; viability with MMS, replicate 1: 4.08e6
CG16799 [DRSC21553] → mean viability with MMS: 3.59e6; viability with MMS, replicate 1: 4.03e6
CG8526 [DRSC16438] → mean viability with MMS: 3.52e6; viability with MMS, replicate 1: 3.97e6
Cks30A (Cyclin-dependent kinase subunit 30A) [DRSC03292] → mean viability with MMS: 3.59e6; viability with MMS, replicate 1: 4.30e6
CG7251 [DRSC03039] → mean viability with MMS: 3.65e6; viability with MMS, replicate 1: 4.11e6
Pxd (Peroxidase) [DRSC16805] → mean viability with MMS: 3.45e6; viability with MMS, replicate 1: 3.90e6
Pdf (Pigment-dispersing factor) [DRSC16786] → mean viability with MMS: 1.80e6; viability with MMS, replicate 1: 3.87e6
CARPA (Carbonic anhydrase-related protein A) [DRSC17905] → mean viability with MMS: 3.37e6; viability with MMS, replicate 1: 3.67e6
CARPA (Carbonic anhydrase-related protein A) [DRSC21633] → mean viability with MMS: 3.55e6; viability with MMS, replicate 1: 4.04e6
CG14011 [DRSC02343] → mean viability with MMS: 3.45e6; viability with MMS, replicate 1: 3.90e6
CG33552 [DRSC01551] → mean viability with MMS: 3.49e6; viability with MMS, replicate 1: 3.92e6

Targets listed so far whose target name starts with P or p (2):
Pxd (Peroxidase) [DRSC16805] → mean viability with MMS: 3.45e6; viability with MMS, replicate 1: 3.90e6
Pdf (Pigment-dispersing factor) [DRSC16786] → mean viability with MMS: 1.80e6; viability with MMS, replicate 1: 3.87e6

Additional records follow:
r + CG13012 [DRSC19531] → mean viability with MMS: 3.61e6; viability with MMS, replicate 1: 4.11e6
CG11878 [DRSC14422] → mean viability with MMS: 3.40e6; viability with MMS, replicate 1: 3.91e6
CG11060 [DRSC06029] → mean viability with MMS: 3.71e6; viability with MMS, replicate 1: 4.10e6
fdl (fused lobes) [DRSC07279] → mean viability with MMS: 3.60e6; viability with MMS, replicate 1: 4.07e6
CG1213 [DRSC12191] → mean viability with MMS: 3.51e6; viability with MMS, replicate 1: 3.97e6
pyx (pyrexia) [DRSC08510] → mean viability with MMS: 3.60e6; viability with MMS, replicate 1: 4.13e6
pyx (pyrexia) [DRSC08511] → mean viability with MMS: 3.31e6; viability with MMS, replicate 1: 4.00e6
CG9813 [DRSC16569] → mean viability with MMS: 3.46e6; viability with MMS, replicate 1: 4.03e6
CG30491 [DRSC21472] → mean viability with MMS: 3.59e6; viability with MMS, replicate 1: 4.09e6
CG42264 [DRSC18074] → mean viability with MMS: 3.63e6; viability with MMS, replicate 1: 4.14e6
CG42264 [DRSC18075] → mean viability with MMS: 3.68e6; viability with MMS, replicate 1: 4.12e6
CG6414 [DRSC18401] → mean viability with MMS: 3.68e6; viability with MMS, replicate 1: 4.18e6
spt4 [DRSC07696] → mean viability with MMS: 3.59e6; viability with MMS, replicate 1: 4.00e6
DIP-zeta (Dpr-interacting protein zeta) [DRSC02203] → mean viability with MMS: 3.71e6; viability with MMS, replicate 1: 4.33e6
DIP-zeta (Dpr-interacting protein zeta) [DRSC02204] → mean viability with MMS: 3.62e6; viability with MMS, replicate 1: 3.98e6
DIP-zeta (Dpr-interacting protein zeta) [DRSC02205] → mean viability with MMS: 3.62e6; viability with MMS, replicate 1: 4.02e6
CG14535 [DRSC02393] → mean viability with MMS: 3.58e6; viability with MMS, replicate 1: 4.02e6
Rab3-GEF (Rab3 GDP-GTP exchange factor) [DRSC19954] → mean viability with MMS: 3.57e6; viability with MMS, replicate 1: 4.04e6
Rab3-GEF (Rab3 GDP-GTP exchange factor) [DRSC19955] → mean viability with MMS: 3.39e6; viability with MMS, replicate 1: 3.73e6
Rab3-GEF (Rab3 GDP-GTP exchange factor) [DRSC19956] → mean viability with MMS: 2.92e6; viability with MMS, replicate 1: 3.49e6
CG6470 [DRSC19994] → mean viability with MMS: 3.53e6; viability with MMS, replicate 1: 4.04e6
